The values below come from patent US20250388664A1.

Sequences of proteins named here, by UniProt entry; tags and fusion partners are left off. Residues count along the entry.
UniProt P02787, residues 20-698: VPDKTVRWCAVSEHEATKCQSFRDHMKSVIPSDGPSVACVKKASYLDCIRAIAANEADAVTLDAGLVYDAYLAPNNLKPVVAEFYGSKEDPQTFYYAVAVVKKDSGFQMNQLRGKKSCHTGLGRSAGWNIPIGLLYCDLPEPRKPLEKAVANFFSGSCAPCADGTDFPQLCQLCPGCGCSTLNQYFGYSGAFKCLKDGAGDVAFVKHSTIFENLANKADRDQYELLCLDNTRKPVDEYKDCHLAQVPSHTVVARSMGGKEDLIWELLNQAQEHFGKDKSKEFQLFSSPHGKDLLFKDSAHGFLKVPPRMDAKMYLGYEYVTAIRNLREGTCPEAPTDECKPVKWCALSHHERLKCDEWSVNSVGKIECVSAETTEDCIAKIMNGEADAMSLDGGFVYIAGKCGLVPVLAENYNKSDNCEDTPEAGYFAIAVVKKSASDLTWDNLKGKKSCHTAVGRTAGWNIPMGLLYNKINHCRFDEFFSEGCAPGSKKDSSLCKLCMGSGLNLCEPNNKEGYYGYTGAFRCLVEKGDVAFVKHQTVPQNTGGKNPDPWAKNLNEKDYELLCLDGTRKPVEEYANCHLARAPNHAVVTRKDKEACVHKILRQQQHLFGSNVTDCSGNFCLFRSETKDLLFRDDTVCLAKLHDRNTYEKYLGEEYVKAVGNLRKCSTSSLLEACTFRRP

No constants are given. Whether binding was seen depends on the method and setting. Some entries that bind do so weakly or less than the wild type.

The experiment deals with cTfR1 (recombinant, construct not specified) (cynomolgus monkey). Put plainly: BLI, TfR1 captured by transferrin-loaded sensors. On the technique in general: BLI is a label-free optical method that tracks binding on a fibre tip over time.

Regarding “human holo-transferrin (from UniProt P02787 20-698) (ligand)”, the binding entry is “binds”.
